Earlier results, collected in patent US6534676B2, “Method to treat chronic heart failure and/or elevated cholesterol levels using 3,5-diiodothyropropionic acid and method to prepare same” (The Arizona Board of Regents on Behalf of the University of …, priority 2001, dated 2003).
At least one structure is not confirmed: it was looked up by name or label, or the drawing left a doubt.

Settings: oral, idiopathic dilated cardiomyopathy, two weeks and 3 months; cited from earlier work

## NC(Cc1cc(I)c(Oc2cc(I)c(O)c(I)c2)c(I)c1)C(=O)O [Thyroxine, 3,5,3′5′-L-thyronine]
  cardiac performance and exercise capacity: improve cardiac performance and exercise capacity
